Out of some 330,000 compounds screened, about 7,700 (2.3%) were called active. The inconclusive results got no clear call from the source; some entries with a clear call stand among them for comparison. Calls follow the shape of the dose curve; as a rule, active = well fitted inhibition curve with a large enough effect; inconclusive = small, poorly fitted or top-dose-only effect, or effect the other way; inactive = flat fitted curve, though single readings scatter. Where the call is inconclusive, the potency comes from a doubtful curve fit.
Assay: qHTS screen for small molecules that inhibit ELG1-dependent DNA repair in human embryonic kidney (HEK293T) cells expressing luciferase-tagged ELG1; also: nearly all actives have a fitted effect of over 55% in size
Conditions: HEK293T ELG1-luciferase reporter, luminescence, 16 h, DNA damage induced by 5-fluorouridine; series mostly up to 46.1 µM
How it was run: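 DMSO vehicle served as the neutral condition. Each well held 2,000 cells given 5-fluorouridine plus compound; after 16 hr at 37 °C/5% CO2, ONE-Glo was added and luciferase measured 30 min later.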
Potency is read from the fitted curve at half-maximal effect.

SMILES | Potency
Cc1nn2c(N3CCN(C)CC3)cc(C(C)(C)C)nc2c1-c1ccccc1 | inactive
Cc1cccc(/C=N/NC(=O)c2ccc(Br)cc2)c1 | inconclusive: 23.1 µM [activator, partial curve]
Cc1ccc(-c2nnc(Cc3ccc([N+](=O)[O-])cc3)o2)cc1 | inconclusive: 0.73 µM [activator, full curve]
CC1CCCN(C(=O)C2CC(=O)N(c3ccc(Cl)cc3)C2)C1 (stereo not given) | inactive
Cc1ccc(S(=O)(=O)NCCC(=O)NCCc2ccc(S(N)(=O)=O)cc2)cc1C | inactive
Cc1nn(CC(=O)NCC(C)c2ccccc2)c(=O)c2cc(-c3ccccc3)nn12 (stereo not given) | inactive
O=S(=O)(c1ccc(Br)cc1)N1CCCC1c1nc2ccccc2s1 (stereo not given) | inconclusive: 18.4 µM [inhibitor, single point]
COc1cc(C(=O)NCC(=O)OC(C)C(=O)Nc2ncc(Cl)cc2Cl)cc(OC)c1OC (stereo not given) | inactive
CCCNC(=S)NCCN1CCCCC1 | inconclusive: 14.6 µM [activator, partial curve, poor fit]
CC(O)CNc1nc2c(c(=O)n(Cc3ccc(Cl)c(Cl)c3)c(=O)n2C)n1C (stereo not given) | inconclusive: 29.1 µM [inhibitor, single point]
COc1ccccc1C(=O)NCCC(=O)Nc1cccc(C)n1 | inconclusive: 23.1 µM [activator, single point]
CC(=O)Nc1ccc(NC(=S)NC(=O)c2ccc([N+](=O)[O-])cc2)cc1 | inactive
O=C(CCCC(=O)c1ccccc1)NCCc1ccccc1 | inactive
Cc1ccc2[nH]c(=O)c(CN(Cc3cccs3)C(=S)NCc3ccco3)cc2c1 | inconclusive: 18.4 µM [inhibitor, single point]
COc1cc(/C=N/NC(=O)c2cccnc2)ccc1OC(=O)c1cccc(Br)c1 | inactive
CC1(C)CC(NC(=O)c2ccc(Br)o2)CC(C)(C)N1 | inactive
CCCCOc1ncnc2c1[nH]c1ccc(F)cc12 | inconclusive: 29.1 µM [activator, single point]
Cc1ccc(S(=O)(=O)N2CCC(C(=O)Nc3nnc(-c4ccco4)s3)CC2)cc1 | inactive
CC(=O)Nc1ccc(N=Nc2ccccc2)cc1 | inconclusive: 5.8 µM [activator, partial curve]
NC(=S)NN=C1c2cc(S(=O)(=O)N3CCOCC3)ccc2-c2ccc(S(=O)(=O)N3CCOCC3)cc21 | inconclusive: 25.9 µM [inhibitor, partial curve, poor fit]
CN(c1cccc(Cl)c1)S(=O)(=O)c1cccc(C(=O)Nc2ccc3c(c2)CCC3)c1 | inactive
O=C(c1cc(-c2ccccc2Cl)on1)N1CCCC1 | inconclusive: 1.46 µM [activator, partial curve]
O=C(Nc1ccccc1Oc1ccccc1)c1cccs1 | inactive
COc1ccc(C(=O)CC(=O)C(=O)Nc2cccc(C(C)=O)c2)cc1 | inactive

Copied from the listing, four compounds:
SMILES | Potency
COc1ccccc1C(=O)NCCC(=O)Nc1cccc(C)n1 | inconclusive: 23.1 µM [activator, single point]
CC(=O)Nc1ccc(NC(=S)NC(=O)c2ccc([N+](=O)[O-])cc2)cc1 | inactive
O=C(CCCC(=O)c1ccccc1)NCCc1ccccc1 | inactive
Cc1ccc2[nH]c(=O)c(CN(Cc3cccs3)C(=S)NCc3ccco3)cc2c1 | inconclusive: 18.4 µM [inhibitor, single point]

Going on with the list.

SMILES | Potency
Cc1ccc(C(=O)C[n+]2ccc(-c3nnc4n3CCC4)cc2)cc1 | inconclusive: 18.4 µM [activator, partial curve, poor fit]
COc1cccc(OCCNc2cc(N3CCOCC3)ccc2[N+](=O)[O-])c1 | inconclusive: 3.66 µM [activator, full curve, poor fit]
COc1ccc(C(=O)N/N=C(\C)c2ccc(NC(=O)Cc3ccccc3)cc2)c(OC)c1 | inconclusive: 29.1 µM [activator, single point]
O=C(/C=C/c1ccc(Cl)cc1Cl)Nc1ccncc1 | inconclusive: 18.4 µM [activator, single point]
Cc1ccc(CNC(=O)CS(=O)(=O)Cc2nc(-c3ccc(C)cc3)oc2C)cc1 | inactive
O=C(c1ccc(Br)o1)N1CCN(Cc2ccc3c(c2)OCO3)CC1 | inconclusive: 10 µM [inhibitor, partial curve, poor fit]
CCOC(=O)c1c(-c2ccccc2)cn2c(C)cc(C)nc12 | inconclusive: 20.6 µM [activator, partial curve]
COc1ccc(-c2oc3ncn(Cc4ccco4)c(=N)c3c2-c2ccc(OC)cc2)cc1 | inconclusive: 35.5 µM [inhibitor, single point]
CCc1ccc(NC(=O)COC(=O)CC2CCCC2)cc1 | inactive
COc1ccc(NCc2n[nH]c(=O)c3ccccc23)cc1 | inconclusive: 23.1 µM [activator, partial curve, poor fit]
CCCC1Cc2c(sc(NC(=S)NC(=O)c3ccccc3)c2C#N)CO1 (stereo not given) | inactive
Nc1nc(-c2ccccn2)nc(N)c1Cc1ccccc1F | inconclusive: 29.1 µM [inhibitor, single point]
N#Cc1nc(Cc2ccccc2)oc1NCc1ccccc1 | inconclusive: 2.06 µM [activator, full curve, poor fit]
CCCC(=O)NC(=S)Nc1ccccc1F | inconclusive: 14.6 µM [activator, partial curve]
COc1ccc(-c2oc3ccc(-c4cc(OC)c(OC)c(OC)c4)cc3c2-c2ccc(OC)nc2)cc1 | inactive
O=C(Nc1nccc(-c2cccs2)n1)c1ccccc1Cl | inconclusive: 14.6 µM [activator, partial curve]
O=C(Nc1cc(SCCO)cc([N+](=O)[O-])c1)c1ccc(Br)o1 | inconclusive: 16.4 µM [inhibitor, partial curve]
Cc1sc(NC(=O)CN2CCCC2)nc1-c1ccc2c(c1)CCN2C(=O)c1ccc(F)cc1 | inconclusive: 16.4 µM [inhibitor, single point]
Cc1cccnc1NC(=O)c1ccc2c(c1)OCCO2 | inconclusive: 25.9 µM [activator, single point]
CCOc1cccc(-c2cc(C(=O)Nc3ccon3)c3ccccc3n2)c1 | active: 13 µM
Cc1cc(NC(=O)Cn2c(=O)c3c(ncn3CCC(C)C)n(Cc3ccccc3)c2=O)no1 | inconclusive: 32.6 µM [inhibitor, single point]
CC(=O)C[C@@H](O)CC(=O)[C@@H]1OC(=O)[C@@H](C)CCCCc2ccccc21 | inactive
COc1cccc(C2=NOC(C(=O)NCc3ccco3)C2)c1 (stereo not given) | inactive
CCN(CC)P1(=O)OC(c2cc(OC)c(OC)c(OC)c2)=Nc2c1c(C)nn2-c1ccccc1 (stereo not given) | inconclusive: 23.1 µM [inhibitor, single point]

SMILES | Potency
O=C(Nc1cccc(-c2nn[nH]n2)c1)c1ccc(Br)s1 | inconclusive: 20.6 µM [activator, single point]
Cc1ccc(-n2ncc3c2CC(C)(C)CC3NC(=O)Cc2c(C)noc2C)cc1 (stereo not given) | inconclusive: 13 µM [inhibitor, partial curve, poor fit]
C=CCc1cc(C(=O)N2CCCCC2)ccc1O | inconclusive: 23.1 µM [inhibitor, partial curve]
CCOc1ccc(/C=N/NC(=S)Nc2c(C)cccc2C)cc1 | active: 18.4 µM
O=C(O)c1ccc2c(c1)C(=O)N(CCc1c[nH]c3ccccc13)C2=O | inconclusive: 20.6 µM [activator, partial curve]
CCCc1ccc(-c2c(C)sc(N)c2C#N)cc1 | inconclusive: 11.6 µM [activator, partial curve]
Cn1cc(CC(=O)NC2CCCCC2)c2ccccc21 | inconclusive: 29.1 µM [activator, single point]
COCCCn1c(SCC(=O)NCc2ccco2)nc2sc3c(c2c1=O)CCC3 | inconclusive: 18.4 µM [inhibitor, single point]
CNC(=O)CSc1nc2c([nH]c3ccccc32)c(=O)n1CCOC | inconclusive: 18.3 µM [activator, partial curve]
Oc1ccc(Nc2nc(-c3ccc(O)cc3)cs2)cc1 | inconclusive: 4.11 µM [activator, single point]
CCC1Nc2ncnc(N3CCN(c4ccccn4)CC3)c2N(Cc2ccc(Cl)cc2)C1=O (stereo not given) | inconclusive: 2.82 µM [inhibitor, partial curve]
O=C(c1ccccc1Br)N1CCC(c2nc3ccccc3s2)CC1 | inconclusive: 20.6 µM [inhibitor, single point]
CC(C)Oc1cccc(C(=O)NC(=S)NCc2cccnc2)c1 | inconclusive: 25.9 µM [inhibitor, partial curve, poor fit]
COc1cc(SC)ccc1C(=O)Nc1nc(C)cs1 | inconclusive: 0.073 µM [activator, full curve]
NC(=O)N/N=C/c1cn(-c2ccccc2)nc1-c1cccs1 | inconclusive: 20.6 µM [activator, partial curve]
COc1ccc(C2=NCN(c3ccc(C)cc3)C(=S)N2)cc1 | inconclusive: 5.8 µM [activator, full curve]
CC(Oc1cccc(Cl)c1)c1ccnc2nc(/N=C/N(C)C)nn12 (stereo not given) | inconclusive: 32.6 µM [activator, partial curve, poor fit]
CCOc1cc(C(=S)N2CCOCC2)ccc1OS(=O)(=O)c1ccc(OC)cc1 | inconclusive: 11.2 µM [inhibitor, partial curve, poor fit]
C=C(C)CN1CCN(S(=O)(=O)c2ccc(C)c(N(C)S(=O)(=O)c3ccc(C)cc3)c2C)CC1 | inconclusive: 25.9 µM [inhibitor, partial curve]
CCN(CC)c1ccc(/C=N/O)cc1 | inactive
Cc1nc(NCCc2ccc(Cl)cc2)c2nnn(Cc3ccccc3)c2n1 | inconclusive: 0.708 µM [activator, single point]
O=S(=O)(c1ccc(F)cc1)N1CCN(CCc2ccccc2)CC1 | inconclusive: 20.6 µM [inhibitor, partial curve, poor fit]

Reference: PubChem BioAssay AID504467 (National Center for Advancing Translational Sciences (NCATS), 2011)
